Test results: PMC11700839
Results are given in words; binding and its absence hold for the method and conditions named. Binding seen in cells or lysates may run through a third protein. Some entries that bind do so weakly or less than the wild type.

Sequences of proteins named here, by UniProt entry; tags and fusion partners are left off.
UniProt Q12778: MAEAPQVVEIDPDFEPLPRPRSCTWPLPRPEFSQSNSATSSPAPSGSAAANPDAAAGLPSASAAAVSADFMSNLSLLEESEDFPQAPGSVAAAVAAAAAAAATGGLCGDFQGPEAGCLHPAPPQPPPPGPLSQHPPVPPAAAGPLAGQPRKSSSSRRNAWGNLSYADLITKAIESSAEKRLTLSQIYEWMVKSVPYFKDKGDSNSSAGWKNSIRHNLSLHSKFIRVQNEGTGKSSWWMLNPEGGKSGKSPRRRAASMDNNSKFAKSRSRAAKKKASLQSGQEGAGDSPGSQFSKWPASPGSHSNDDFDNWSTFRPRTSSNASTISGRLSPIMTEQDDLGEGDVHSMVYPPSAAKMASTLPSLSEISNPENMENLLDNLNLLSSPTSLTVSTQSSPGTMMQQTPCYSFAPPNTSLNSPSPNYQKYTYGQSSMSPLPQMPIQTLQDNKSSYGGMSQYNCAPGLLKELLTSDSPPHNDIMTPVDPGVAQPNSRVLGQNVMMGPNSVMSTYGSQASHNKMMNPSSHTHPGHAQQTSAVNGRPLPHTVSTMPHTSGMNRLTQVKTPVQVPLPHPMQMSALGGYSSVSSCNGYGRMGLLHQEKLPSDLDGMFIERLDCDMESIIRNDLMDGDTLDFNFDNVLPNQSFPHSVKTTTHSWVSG

Target: T1, ETS1 transcription factor (endogenous, FP-RMS cells) (human (endogenous in Rh30 and Rh41)) (UniProt P14921)
T1 sequence: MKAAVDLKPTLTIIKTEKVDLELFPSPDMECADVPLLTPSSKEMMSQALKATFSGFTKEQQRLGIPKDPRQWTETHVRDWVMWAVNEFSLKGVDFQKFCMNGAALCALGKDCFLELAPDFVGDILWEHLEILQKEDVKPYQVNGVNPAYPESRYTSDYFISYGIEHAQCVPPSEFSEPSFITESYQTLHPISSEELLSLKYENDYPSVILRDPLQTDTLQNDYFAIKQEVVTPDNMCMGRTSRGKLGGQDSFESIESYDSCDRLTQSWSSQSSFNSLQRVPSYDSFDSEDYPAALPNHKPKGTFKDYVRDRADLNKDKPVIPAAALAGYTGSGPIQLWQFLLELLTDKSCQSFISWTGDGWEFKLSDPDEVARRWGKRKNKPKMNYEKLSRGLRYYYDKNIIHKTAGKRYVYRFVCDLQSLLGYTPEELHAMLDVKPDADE
Assay: co-IP; endogenous proteins from Rh30 and Rh41 cells, IP with ETS1 antibody (rabbit IgG as negative control), immunoblot; also with Ethidium Bromide or Benzonase in the IP; also cells pre-treated 16 hours with 1 µM YK-4-279 or DMSO and the same included in the IP reaction, recovery by densitometry normalized to ETS1

“FOXO1 (endogenous, FP-RMS cells) (from UniProt Q12778 1-655)” was tested, and the binding was “binds”.
